Results taken from the supplement of paper PMC6078165.
± gives the standard deviation of the averaged measurements. Values are relative to the signal before dosing, not to a vehicle control; the signal also falls without drug.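 Fibroblast labels denote human fibroblasts, mainly primary ones from uterus (C12385, HUF), lung (H6013), bone (Hs27A), adrenal (HADF) and skin (WS1), plus mammary HMF and breast cancer-associated Hs343T. Cancer cells are basal-like or mesenchymal-like triple-negative breast cancer lines. A hit is a response shift exceeding 3x replicate standard deviation. The tissue of the other fibroblasts is not given here.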 Numbered stars: 1 amine (or outer) side, 2 acyl side, 3 side chain; on linkers, the order of the positions; unused ones are H or OH. Bridge positions count the residues as written; N and C are the ends. Square brackets hold non-standard residues; d marks the D form. Peptide text beside a SMILES is read from it. I, II: the chains in the order shown. Actinocin(9to1) = Cc1c2oc3c(C)ccc(C(=O)[*:1])c3nc-2c(C(=O)[*:2])c(N)c1=O; NMeV = CN[C@H](C(=O)O)C(C)C; Sar = CNCC(=O)O

Test system: MDAMB436
Experiment: relative JC-1 red fluorescence (viability) vs pre-drug, coculture with fibroblast (fraction); higher = more viable cancer cells
Details: 10 µM
Description: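 JC-1 labelled TNBC cells cocultured 1:1 (1,500 cells each) with CellTrace Violet stained primary or stromal fibroblasts in 384-well plates in FluoroBrite medium, treated with one of 42 anticancer drugs at 0.1, 1, 10 or 100 uM. JC-1 red fluorescence (mitochondrial integrity in cancer cells only) was read by plate reader every 8 h for 72 h. Values are normalised to each well's pre-drug value. The stock of one drug was tenfold lower, so its dose labels may be too high.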

## Cc1c2oc3c(C)ccc(C(=O)N[C@@H]4C(=O)N[C@H](C(C)C)C(=O)N5CCC[C@H]5C(=O)N(C)CC(=O)N(C)[C@@H](C(C)C)C(=O)O[C@@H]4C)c3nc-2c(C(=O)N[C@@H]2C(=O)N[C@H](C(C)C)C(=O)N3CCC[C@H]3C(=O)N(C)CC(=O)N(C)[C@@H](C(C)C)C(=O)O[C@@H]2C)c(N)c1=O [Dactinomycin] (I: T[dV]P[Sar][NMeV] / II: T[dV]P[Sar][NMeV]; ester I:1-I:C, II:1-II:C; linker I:N-II:N via Actinocin(9to1))
40 h, coculture fibroblast: HHSteC
  relative JC-1 red fluorescence: 0.865 ± 0.08
40 h, coculture fibroblast: HMF
  relative JC-1 red fluorescence: 0.8 ± 0.083
40 h, coculture fibroblast: HPFa
  relative JC-1 red fluorescence: 0.819 ± 0.021
40 h, coculture fibroblast: HUF
  relative JC-1 red fluorescence: 0.64 ± 0.13
40 h, coculture fibroblast: Hs5
  relative JC-1 red fluorescence: 0.692 ± 0.037
40 h, coculture fibroblast: Hs27A
  relative JC-1 red fluorescence: 0.818 ± 0.18
40 h, coculture fibroblast: Hs343T
  relative JC-1 red fluorescence: 0.688 ± 0.065
40 h, coculture fibroblast: WS1
  relative JC-1 red fluorescence: 0.661 ± 0.0086
48 h, coculture fibroblast: C12385
  relative JC-1 red fluorescence: 0.6634 ± 0.0035
48 h, coculture fibroblast: H6013
  relative JC-1 red fluorescence: 0.813 ± 0.059
48 h, coculture fibroblast: H6019
  relative JC-1 red fluorescence: 0.626 ± 0.045
48 h, coculture fibroblast: H6076
  relative JC-1 red fluorescence: 0.607 ± 0.085
48 h, coculture fibroblast: H6231
  relative JC-1 red fluorescence: 0.662 ± 0.12
48 h, coculture fibroblast: HADF
  relative JC-1 red fluorescence: 0.764 ± 0.1
48 h, coculture fibroblast: HCFa
  relative JC-1 red fluorescence: 0.781 ± 0.015
48 h, coculture fibroblast: HCPF
  relative JC-1 red fluorescence: 0.644 ± 0.069
48 h, coculture fibroblast: HHSteC
  relative JC-1 red fluorescence: 0.886 ± 0.091
48 h, coculture fibroblast: HMF
  relative JC-1 red fluorescence: 0.782 ± 0.081
48 h, coculture fibroblast: HPFa
  relative JC-1 red fluorescence: 0.848 ± 0.035
48 h, coculture fibroblast: HUF
  relative JC-1 red fluorescence: 0.618 ± 0.14
48 h, coculture fibroblast: Hs5
  relative JC-1 red fluorescence: 0.65 ± 0.05
48 h, coculture fibroblast: Hs27A
  relative JC-1 red fluorescence: 0.773 ± 0.013
48 h, coculture fibroblast: Hs343T
  relative JC-1 red fluorescence: 0.665 ± 0.063
48 h, coculture fibroblast: WS1
  relative JC-1 red fluorescence: 0.65 ± 0.0081
56 h, coculture fibroblast: C12385
  relative JC-1 red fluorescence: 0.66 ± 0.013
56 h, coculture fibroblast: H6013
  relative JC-1 red fluorescence: 0.791 ± 0.066
56 h, coculture fibroblast: H6019
  relative JC-1 red fluorescence: 0.616 ± 0.045
56 h, coculture fibroblast: H6076
  relative JC-1 red fluorescence: 0.623 ± 0.12
56 h, coculture fibroblast: H6231
  relative JC-1 red fluorescence: 0.675 ± 0.14
56 h, coculture fibroblast: HADF
  relative JC-1 red fluorescence: 0.779 ± 0.02
56 h, coculture fibroblast: HCFa
  relative JC-1 red fluorescence: 0.746 ± 0.017
56 h, coculture fibroblast: HCPF
  relative JC-1 red fluorescence: 0.647 ± 0.073
56 h, coculture fibroblast: HHSteC
  relative JC-1 red fluorescence: 0.854 ± 0.097
56 h, coculture fibroblast: HMF
  relative JC-1 red fluorescence: 0.82 ± 0.081
56 h, coculture fibroblast: HPFa
  relative JC-1 red fluorescence: 0.809 ± 0.049
56 h, coculture fibroblast: HUF
  relative JC-1 red fluorescence: 0.607 ± 0.15
56 h, coculture fibroblast: Hs5
  relative JC-1 red fluorescence: 0.66 ± 0.053
56 h, coculture fibroblast: Hs27A
  relative JC-1 red fluorescence: 0.842 ± 0.21
56 h, coculture fibroblast: Hs343T
  relative JC-1 red fluorescence: 0.679 ± 0.06
56 h, coculture fibroblast: WS1
  relative JC-1 red fluorescence: 0.6553 ± 0.0035
64 h, coculture fibroblast: C12385
  relative JC-1 red fluorescence: 0.6538 ± 0.0031
64 h, coculture fibroblast: H6013
  relative JC-1 red fluorescence: 0.784 ± 0.068
64 h, coculture fibroblast: H6019
  relative JC-1 red fluorescence: 0.609 ± 0.042
64 h, coculture fibroblast: H6076
  relative JC-1 red fluorescence: 0.623 ± 0.13
64 h, coculture fibroblast: H6231
  relative JC-1 red fluorescence: 0.672 ± 0.13
64 h, coculture fibroblast: HADF
  relative JC-1 red fluorescence: 0.786 ± 0.029
64 h, coculture fibroblast: HCFa
  relative JC-1 red fluorescence: 0.746 ± 0.013
64 h, coculture fibroblast: HCPF
  relative JC-1 red fluorescence: 0.64 ± 0.069
64 h, coculture fibroblast: HHSteC
  relative JC-1 red fluorescence: 0.852 ± 0.1
64 h, coculture fibroblast: HMF
  relative JC-1 red fluorescence: 0.796 ± 0.067
64 h, coculture fibroblast: HPFa
  relative JC-1 red fluorescence: 0.819 ± 0.056
64 h, coculture fibroblast: HUF
  relative JC-1 red fluorescence: 0.602 ± 0.17
64 h, coculture fibroblast: Hs5
  relative JC-1 red fluorescence: 0.638 ± 0.06
64 h, coculture fibroblast: Hs27A
  relative JC-1 red fluorescence: 0.804 ± 0.14
64 h, coculture fibroblast: Hs343T
  relative JC-1 red fluorescence: 0.686 ± 0.075
64 h, coculture fibroblast: WS1
  relative JC-1 red fluorescence: 0.6419 ± 0.0031
72 h, coculture fibroblast: C12385
  relative JC-1 red fluorescence: 0.658 ± 0.0089
72 h, coculture fibroblast: H6013
  relative JC-1 red fluorescence: 0.758 ± 0.075
72 h, coculture fibroblast: H6019
  relative JC-1 red fluorescence: 0.596 ± 0.051
72 h, coculture fibroblast: H6076
  relative JC-1 red fluorescence: 0.614 ± 0.14
72 h, coculture fibroblast: H6231
  relative JC-1 red fluorescence: 0.674 ± 0.15
72 h, coculture fibroblast: HADF
  relative JC-1 red fluorescence: 0.875 ± 0.14
72 h, coculture fibroblast: HCFa
  relative JC-1 red fluorescence: 0.712 ± 0.0089
72 h, coculture fibroblast: HCPF
  relative JC-1 red fluorescence: 0.651 ± 0.075
72 h, coculture fibroblast: HHSteC
  relative JC-1 red fluorescence: 0.821 ± 0.1
72 h, coculture fibroblast: HMF
  relative JC-1 red fluorescence: 0.795 ± 0.038
72 h, coculture fibroblast: HPFa
  relative JC-1 red fluorescence: 0.791 ± 0.059
72 h, coculture fibroblast: HUF
  relative JC-1 red fluorescence: 0.603 ± 0.18
72 h, coculture fibroblast: Hs5
  relative JC-1 red fluorescence: 0.644 ± 0.056
72 h, coculture fibroblast: Hs27A
  relative JC-1 red fluorescence: 0.794 ± 0.21
72 h, coculture fibroblast: Hs343T
  relative JC-1 red fluorescence: 0.702 ± 0.085
72 h, coculture fibroblast: WS1
  relative JC-1 red fluorescence: 0.6534 ± 0.0059
